PMC10226814
These are yes or no findings as the source states them, for the method shown. Binding seen in cells or lysates may run through a third protein. Some entries that bind do so weakly or less than the wild type.

Target: T1, endothelial nitric oxide synthase (rat (endogenous in penile corpus cavernosum)) (UniProt Q62600)
T1 sequence: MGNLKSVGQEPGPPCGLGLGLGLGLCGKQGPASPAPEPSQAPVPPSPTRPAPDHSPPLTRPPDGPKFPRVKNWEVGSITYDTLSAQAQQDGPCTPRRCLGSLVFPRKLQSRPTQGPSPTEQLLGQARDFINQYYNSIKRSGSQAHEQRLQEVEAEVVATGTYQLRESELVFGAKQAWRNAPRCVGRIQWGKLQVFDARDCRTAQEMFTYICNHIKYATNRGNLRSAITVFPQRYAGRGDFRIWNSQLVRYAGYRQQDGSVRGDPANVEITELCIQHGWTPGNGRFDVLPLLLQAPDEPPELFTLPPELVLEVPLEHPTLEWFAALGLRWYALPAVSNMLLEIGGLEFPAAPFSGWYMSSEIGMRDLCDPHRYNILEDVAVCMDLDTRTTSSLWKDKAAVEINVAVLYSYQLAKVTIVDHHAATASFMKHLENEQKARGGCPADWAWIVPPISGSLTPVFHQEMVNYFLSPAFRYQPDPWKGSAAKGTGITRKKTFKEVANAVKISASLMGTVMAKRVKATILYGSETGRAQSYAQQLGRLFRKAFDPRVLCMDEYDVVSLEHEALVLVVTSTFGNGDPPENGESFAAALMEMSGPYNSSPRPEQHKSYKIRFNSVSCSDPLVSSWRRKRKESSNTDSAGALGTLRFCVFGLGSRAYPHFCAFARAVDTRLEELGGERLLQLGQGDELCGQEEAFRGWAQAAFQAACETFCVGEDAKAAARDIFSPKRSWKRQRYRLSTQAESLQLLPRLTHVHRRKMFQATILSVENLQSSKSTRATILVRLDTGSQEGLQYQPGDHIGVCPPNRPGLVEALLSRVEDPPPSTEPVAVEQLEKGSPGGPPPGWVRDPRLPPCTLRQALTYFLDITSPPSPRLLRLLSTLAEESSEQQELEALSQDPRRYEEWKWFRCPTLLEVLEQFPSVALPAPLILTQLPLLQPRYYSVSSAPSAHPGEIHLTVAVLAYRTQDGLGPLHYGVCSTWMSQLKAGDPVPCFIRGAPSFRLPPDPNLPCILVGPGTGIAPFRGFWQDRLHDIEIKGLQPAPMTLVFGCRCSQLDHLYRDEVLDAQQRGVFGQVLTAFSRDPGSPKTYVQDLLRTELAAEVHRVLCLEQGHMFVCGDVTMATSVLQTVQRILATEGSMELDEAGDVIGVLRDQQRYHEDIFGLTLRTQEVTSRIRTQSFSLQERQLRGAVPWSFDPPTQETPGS
Assay: co-IP; eNOS precipitated from rat penile tissue lysate with anti-eNOS antibody and protein A + G agarose, 4 °C overnight, washed 5 times, blotted for GIT1; groups: sham operated, castration, testosterone supplement after castration, castration + vacant lentivirus, castration + GIT1 lentivirus

B1: G protein–coupled receptor kinase interactor 1 (protein, UniProt Q9Z272 1-770)
chain: MSRKGPRAEVCADCSAPDPGWASISRGVLVCDECCSVHRSLGRHISIVKHLRHSAWPPTLLQMVHTLASNGANSIWEHSLLDPAQVQSGRRKANPQDKVHPIKSEFIRAKYQMLAFVHKLPCRDDDGVTAKDLSKQLHSSVRTGNLETCLRLLSLGAQANFFHPEKGTTPLHVAAKAGQTLQAELLVVYGADPGSPDVNGRTPIDYARQAGHHELAERLVECQYELTDRLAFYLCGRKPDHKNGHYIIPQMADRSRQKCMSQSLDLSELAKAAKKKLQALSNRLFEELAMDVYDEVDRRENDAVWLATQNHSTLVTERSAVPFLPVNPEYSATRNQGRQKLARFNAREFATLIIDILSEAKRRQQGKSLSSPTDNLELSARNQSDLDDQHDYDSVASDEDTDQEPLPSAGATRNNRARSMDSSDLSDGAVTLQEYLELKKALATSEAKVQQLMKVNSSLSDELRKLQREIHKLQAENLQLRQPPGPVPVPSLPSERAEHTLMGPGGSTHRRDRQAFSMYEPGSALKPFGGAPGDELATRLQPFHSTELEDDAIYSVHVPAGLYRIRKGVSASSVTFTPSSPLLSSSQEGSRHASKLSRHGSGAESDYENTQSGEPLLGLEGKRFLELSKEDELHAELESLDGDPDPGLPSTEDVILKTEQVTKNIQELLRAAQEFKHDSFVPCSEKIHLAVTEMASLFPKRPALEPVRSSLRLLNASAYRLQSECRKTVPPEPGAPVDFQLLTQQVIQCAYDIAKAAKQLVTITTREKKQ
binding: binds
